# Assay results reported in the supplement of paper PMC8728848.
# Some of the results follow.
# B1: BIp1-His (Cryptococcus neoformans) (protein)
# chain: MFTKIFVALFAATAVLSAPVESAEKRITHTGRATFYSPSVGIGACGWQNTDEELVVALNAPQYALNADHNCGQSVRITNEQNGNQEIAKVVDLCPGCNDGDLDMSPALFGALNNNDFDQGVFPISWNFLPRDDTSSSN
# Columns and labels:
# Test in all cases: glycan array binding signal (z-score within array); higher = stronger binding
# Settings in all cases: glycan notation: IUPAC condensed, linker removed
# [1] = molecular target: Neu5Ac(a2-3)Gal(b1-3)GlcNAc(b1-4)Gal(b1-4)Glc
# Summary of the method: (§1)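 Glycan array data were curated from 3228 arrays in the Consortium for Functional Glycomics database and kept only where the protein sequence was available. Glycan names were converted to IUPAC-condensed notation, and columns mapping to the same glycan were averaged. The binding signal is a within-array Z-score, averaged across arrays of the same protein sequence at different concentrations or buffers and across linkers. Negative Z-scores can be read as non-binding.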
# [2] = molecular target: Neu5Ac(a2-3)Gal(b1-3)GlcNAc(b1-6)GalNAc
# Summary of the method: as §1
# [3] = molecular target: Neu5Ac(a2-3)Gal(b1-3)GlcNAc6S
# Summary of the method: as §1
# [4] = molecular target: Neu5Ac(a2-3)Gal(b1-3)[Fuc(a1-4)]GlcNAc
# Summary of the method: as §1
# [5] = molecular target: Neu5Ac(a2-3)Gal(b1-3)[Fuc(a1-4)]GlcNAc(b1-3)Gal(b1-3)[Fuc(a1-4)]GlcNAc
# Summary of the method: as §1
# [6] = molecular target: Neu5Ac(a2-3)Gal(b1-3)[Fuc(a1-4)]GlcNAc(b1-3)Gal(b1-4)[Fuc(a1-3)]GlcNAc
# Summary of the method: as §1
# [7] = molecular target: Neu5Ac(a2-3)Gal(b1-3)[GlcNAc(b1-6)]GalNAc
# Summary of the method: as §1
# [8] = molecular target: Neu5Ac(a2-3)Gal(b1-3)[Neu5Ac(a2-6)]GalNAc
# Summary of the method: as §1
# [9] = molecular target: Neu5Ac(a2-3)Gal(b1-3)[Neu5Ac(a2-6)]GlcNAc(b1-3)[Fuc(a1-3)[Gal(b1-4)]GlcNAc(b1-6)]Gal(b1-4)Glc
# Summary of the method: as §1
# [10] = molecular target: Neu5Ac(a2-3)Gal(b1-3)]Neu5Ac(a2-3)Gal(b1-4)]GlcNAc
# Summary of the method: as §1
# [11] = molecular target: Neu5Ac(a2-3)Gal(b1-4)Glc
# Summary of the method: as §1
# [12] = molecular target: Neu5Ac(a2-3)Gal(b1-4)GlcNAc
# Summary of the method: as §1
# [13] = molecular target: Neu5Ac(a2-3)Gal(b1-4)GlcNAc(b1-2)Man
# Summary of the method: as §1
# [14] = molecular target: Neu5Ac(a2-3)Gal(b1-4)GlcNAc(b1-2)Man(a1-3)[GlcNAc(b1-4)][Neu5Ac(a2-3)Gal(b1-4)GlcNAc(b1-2)Man(a1-6)]Man(b1-4)GlcNAc(b1-4)GlcNAc
# Summary of the method: as §1
# [15] = molecular target: Neu5Ac(a2-3)Gal(b1-4)GlcNAc(b1-2)Man(a1-3)[Neu5Ac(a2-3)Gal(b1-4)GlcNAc(b1-2)Man(a1-6)]Man(b1-4)GlcNAc(b1-4)GlcNAc
# Summary of the method: as §1
# [16] = molecular target: Neu5Ac(a2-3)Gal(b1-4)GlcNAc(b1-2)Man(a1-3)[Neu5Ac(a2-3)Gal(b1-4)GlcNAc(b1-2)Man(a1-6)]Man(b1-4)GlcNAc(b1-4)[Fuc(a1-6)]GlcNAc
# Summary of the method: as §1
# [17] = molecular target: Neu5Ac(a2-3)Gal(b1-4)GlcNAc(b1-2)Man(a1-3)[Neu5Ac(a2-6)Gal(b1-4)GlcNAc(b1-2)Man(a1-6)]Man(b1-4)GlcNAc(b1-4)GlcNAc
# Summary of the method: as §1
# [18] = molecular target: Neu5Ac(a2-3)Gal(b1-4)GlcNAc(b1-2)[Neu5Ac(a2-3)Gal(b1-4)GlcNAc(b1-4)]Man(a1-3)[GlcNAc(b1-4)][Neu5Ac(a2-3)Gal(b1-4)GlcNAc(b1-2)[Neu5Ac(a2-3)Gal(b1-4)GlcNAc(b1-6)]Man(a1-6)]Man(b1-4)GlcNAc(b1-4)GlcNAc
# Summary of the method: as §1
# [19] = molecular target: Neu5Ac(a2-3)Gal(b1-4)GlcNAc(b1-2)[Neu5Ac(a2-3)Gal(b1-4)GlcNAc(b1-4)]Man(a1-3)[GlcNAc(b1-4)][Neu5Ac(a2-3)Gal(b1-4)GlcNAc(b1-4)Man(a1-6)]Man(b1-4)GlcNAc(b1-4)GlcNAc
# Summary of the method: as §1
# [20] = molecular target: Neu5Ac(a2-3)Gal(b1-4)GlcNAc(b1-2)[Neu5Ac(a2-3)Gal(b1-4)GlcNAc(b1-6)]Man(a1-6)[Neu5Ac(a2-3)Gal(b1-4)GlcNAc(b1-2)Man(a1-3)][GlcNAc(b1-4)]Man(b1-4)GlcNAc(b1-4)GlcNAc
# Summary of the method: as §1
# [21] = molecular target: Neu5Ac(a2-3)Gal(b1-4)GlcNAc(b1-3)Gal
# Summary of the method: as §1
# [22] = molecular target: Neu5Ac(a2-3)Gal(b1-4)GlcNAc(b1-3)Gal(b1-3)GlcNAc
# Summary of the method: as §1
# [23] = molecular target: Neu5Ac(a2-3)Gal(b1-4)GlcNAc(b1-3)Gal(b1-4)GlcNAc
# Summary of the method: as §1
# [24] = molecular target: Neu5Ac(a2-3)Gal(b1-4)GlcNAc(b1-3)Gal(b1-4)GlcNAc(b1-2)Man(a1-3)[Neu5Ac(a2-3)Gal(b1-4)GlcNAc(b1-3)Gal(b1-4)GlcNAc(b1-2)Man(a1-6)]Man(b1-4)GlcNAc(b1-4)GlcNAc
# Summary of the method: as §1
# [25] = molecular target: Neu5Ac(a2-3)Gal(b1-4)GlcNAc(b1-3)Gal(b1-4)GlcNAc(b1-3)Gal(b1-4)GlcNAc
# Summary of the method: as §1
# [26] = molecular target: Neu5Ac(a2-3)Gal(b1-4)GlcNAc(b1-3)Gal(b1-4)GlcNAc(b1-3)Gal(b1-4)GlcNAc(b1-2)Man(a1-3)[Neu5Ac(a2-3)Gal(b1-4)GlcNAc(b1-3)Gal(b1-4)GlcNAc(b1-3)Gal(b1-4)GlcNAc(b1-2)Man(a1-6)]GalNAc
# Summary of the method: as §1
# [27] = molecular target: Neu5Ac(a2-3)Gal(b1-4)GlcNAc(b1-3)Gal(b1-4)GlcNAc(b1-3)GalNAc
# Summary of the method: as §1
# [28] = molecular target: Neu5Ac(a2-3)Gal(b1-4)GlcNAc(b1-3)Gal(b1-4)GlcNAc(b1-3)[Neu5Ac(a2-3)Gal(b1-4)GlcNAc(b1-3)Gal(b1-4)GlcNAc(b1-6)]GalNAc
# Summary of the method: as §1
# [29] = molecular target: Neu5Ac(a2-3)Gal(b1-4)GlcNAc(b1-3)Gal(b1-4)GlcNAc(b1-6)[Gal(b1-3)]GalNAc
# Summary of the method: as §1
# [30] = molecular target: Neu5Ac(a2-3)Gal(b1-4)GlcNAc(b1-3)Gal(b1-4)[Fuc(a1-3)]GlcNAc
# Summary of the method: as §1
# [31] = molecular target: Neu5Ac(a2-3)Gal(b1-4)GlcNAc(b1-3)GalNAc
# Summary of the method: as §1
# [32] = molecular target: Neu5Ac(a2-3)Gal(b1-4)GlcNAc(b1-3)[Neu5Ac(a2-3)Gal(b1-4)GlcNAc(b1-6)]GalNAc
# Summary of the method: as §1
# [33] = molecular target: Neu5Ac(a2-3)Gal(b1-4)GlcNAc(b1-6)GalNAc
# Summary of the method: as §1
# [34] = molecular target: Neu5Ac(a2-3)Gal(b1-4)GlcNAc(b1-6)[Gal(b1-3)]GalNAc
# Summary of the method: as §1
# [35] = molecular target: Neu5Ac(a2-3)Gal(b1-4)GlcNAc(b1-6)[Neu5Ac(a2-3)Gal(b1-3)]GalNAc
# Summary of the method: as §1
# [36] = molecular target: Neu5Ac(a2-3)Gal(b1-4)GlcNAc6S
# Summary of the method: as §1
# [37] = molecular target: Neu5Ac(a2-3)Gal(b1-4)[Fuc(a1-3)]GlcNAc
# Summary of the method: as §1
# [38] = molecular target: Neu5Ac(a2-3)Gal(b1-4)[Fuc(a1-3)]GlcNAc(b1-2)Man
# Summary of the method: as §1
# [39] = molecular target: Neu5Ac(a2-3)Gal(b1-4)[Fuc(a1-3)]GlcNAc(b1-3)Gal
# Summary of the method: as §1
# [40] = molecular target: Neu5Ac(a2-3)Gal(b1-4)[Fuc(a1-3)]GlcNAc(b1-3)Gal(b1-4)GlcNAc
# Summary of the method: as §1
# [41] = molecular target: Neu5Ac(a2-3)Gal(b1-4)[Fuc(a1-3)]GlcNAc(b1-3)Gal(b1-4)[Fuc(a1-3)]GlcNAc(b1-3)Gal(b1-4)[Fuc(a1-3)]GlcNAc
# Summary of the method: as §1
# [42] = molecular target: Neu5Ac(a2-3)Gal(b1-4)[Fuc(a1-3)]GlcNAc(b1-3)GalNAc
# Summary of the method: as §1
# [43] = molecular target: Neu5Ac(a2-3)Gal(b1-4)[Fuc(a1-3)]GlcNAc(b1-6)[Gal(b1-3)]GalNAc
# Summary of the method: as §1
# [44] = molecular target: Neu5Ac(a2-3)Gal(b1-4)[Fuc(a1-3)]GlcNAc(b1-6)[Neu5Ac(a2-3)Gal(b1-3)]GalNAc
# Summary of the method: as §1
# [45] = molecular target: Neu5Ac(a2-3)Gal(b1-4)[Fuc(a1-3)]GlcNAc6S
# Summary of the method: as §1
binder,measurement,setting,value
B1,glycan array binding signal (z-score),[1],-1.13
same,glycan array binding signal (z-score),[2],1.86
same,glycan array binding signal (z-score),[3],0.133
same,glycan array binding signal (z-score),[4],0.485
same,glycan array binding signal (z-score),[5],-0.526
same,glycan array binding signal (z-score),[6],-0.185
same,glycan array binding signal (z-score),[7],-0.792
same,glycan array binding signal (z-score),[8],-0.138
same,glycan array binding signal (z-score),[9],-0.018
same,glycan array binding signal (z-score),[10],-0.538
same,glycan array binding signal (z-score),[11],0.687
same,glycan array binding signal (z-score),[12],0.784
same,glycan array binding signal (z-score),[13],-0.517
same,glycan array binding signal (z-score),[14],-0.31
same,glycan array binding signal (z-score),[15],0.529
same,glycan array binding signal (z-score),[16],1.23
same,glycan array binding signal (z-score),[17],-0.064
same,glycan array binding signal (z-score),[18],-0.691
same,glycan array binding signal (z-score),[19],-0.714
same,glycan array binding signal (z-score),[20],-0.122
same,glycan array binding signal (z-score),[21],-0.64
same,glycan array binding signal (z-score),[22],-0.056
same,glycan array binding signal (z-score),[23],-0.038
same,glycan array binding signal (z-score),[24],-0.11
same,glycan array binding signal (z-score),[25],0.112
same,glycan array binding signal (z-score),[26],2.41
same,glycan array binding signal (z-score),[27],0.001
same,glycan array binding signal (z-score),[28],-0.12
same,glycan array binding signal (z-score),[29],-0.007
same,glycan array binding signal (z-score),[30],-0.781
same,glycan array binding signal (z-score),[31],0.56
same,glycan array binding signal (z-score),[32],-0.036
same,glycan array binding signal (z-score),[33],-1.14
same,glycan array binding signal (z-score),[34],0.275
same,glycan array binding signal (z-score),[35],-1.36
same,glycan array binding signal (z-score),[36],-0.016
same,glycan array binding signal (z-score),[37],-0.062
same,glycan array binding signal (z-score),[38],-0.846
same,glycan array binding signal (z-score),[39],-0.507
same,glycan array binding signal (z-score),[40],-0.238
same,glycan array binding signal (z-score),[41],-0.178
same,glycan array binding signal (z-score),[42],1.32
same,glycan array binding signal (z-score),[43],0.648
same,glycan array binding signal (z-score),[44],1.09
same,glycan array binding signal (z-score),[45],-0.83

# Part of the list above, as tab-separated lines:
binder	measurement	setting	value
B1	glycan array binding signal (z-score)	[2]	1.86
same	glycan array binding signal (z-score)	[16]	1.23
same	glycan array binding signal (z-score)	[42]	1.32
